Results deposited as PubChem BioAssay AID1259261 (Sanger Institute, 2017).
Purpose: 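Kinase knock-downs that kill colorectal cancer cells or boost targeted drugs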 (primary screen). Cell system: HCC2998 human colorectal cancer cells. Reagent: siRNA pool against human genes. Conditions: anchor drugs BYL719 1 µM, cetuximab 5 µg/ml or trametinib 10 nM, each compared with DMSO vehicle. Measured: 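Cell viability relative to non-targeting siRNA, averaged over replicates, with robust z-score for siRNA alone and synergy scores with each anchor drug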. Reading the numbers: viability z-score, knock-down alone: higher = more viable cells than controls; viability fraction, knock-down alone: higher = more viable cells. Hit rule: 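a knock-down is called essential if its robust z-score without drug is under -3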. Calls: active = essential; inactive = no change.
The deposit covers 794 reagents; shown is a part drawn at random. Over the whole deposit, 10 (1.3%) were called active. 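Calls reflect knock-down alone without drug; synergy scores with BYL719, cetuximab or trametinib do not affect calls.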 No viability above 1 is reported: the scale is capped. Not all columns of the deposit are shown. Not stated in the record: the amount of reagent, the time to read-out.

MAPK15 → viability z-score, knock-down alone: -0.604; viability fraction, knock-down alone: 0.773; activity call: inactive
ARAF → viability z-score, knock-down alone: 1.21; viability fraction, knock-down alone: 1; activity call: inactive
SRC → viability z-score, knock-down alone: -0.704; viability fraction, knock-down alone: 0.761; activity call: inactive
CKMT2 → viability z-score, knock-down alone: 0.475; viability fraction, knock-down alone: 0.908; activity call: inactive
MAST2 → viability z-score, knock-down alone: 0.772; viability fraction, knock-down alone: 0.946; activity call: inactive
PIM1 → viability z-score, knock-down alone: -0.676; viability fraction, knock-down alone: 0.764; activity call: inactive
MAST1 → viability z-score, knock-down alone: -0.893; viability fraction, knock-down alone: 0.737; activity call: inactive
PNKP → viability z-score, knock-down alone: 0.868; viability fraction, knock-down alone: 0.958; activity call: inactive
BUB1B → viability z-score, knock-down alone: -1.7; viability fraction, knock-down alone: 0.636; activity call: inactive
STK26 → viability z-score, knock-down alone: 0.792; viability fraction, knock-down alone: 0.948; activity call: inactive
GRK7 → viability z-score, knock-down alone: -0.128; viability fraction, knock-down alone: 0.833; activity call: inactive
BUB1 → viability z-score, knock-down alone: 0.586; viability fraction, knock-down alone: 0.922; activity call: inactive
ULK3 → viability z-score, knock-down alone: -0.518; viability fraction, knock-down alone: 0.784; activity call: inactive
JAK1 → viability z-score, knock-down alone: 0.086; viability fraction, knock-down alone: 0.86; activity call: inactive
DYRK4 → viability z-score, knock-down alone: -1.84; viability fraction, knock-down alone: 0.619; activity call: inactive
FN3K → viability z-score, knock-down alone: 0.0231; viability fraction, knock-down alone: 0.852; activity call: inactive
STK32B → viability z-score, knock-down alone: -1.14; viability fraction, knock-down alone: 0.706; activity call: inactive
KHK → viability z-score, knock-down alone: -0.305; viability fraction, knock-down alone: 0.811; activity call: inactive
KCNH2 → viability z-score, knock-down alone: -0.359; viability fraction, knock-down alone: 0.804; activity call: inactive
ITPK1 → viability z-score, knock-down alone: 0.987; viability fraction, knock-down alone: 0.973; activity call: inactive
DSTYK → viability z-score, knock-down alone: 1.21; viability fraction, knock-down alone: 1; activity call: inactive
ABL2 → viability z-score, knock-down alone: 0.198; viability fraction, knock-down alone: 0.874; activity call: inactive
PRKCH → viability z-score, knock-down alone: -0.948; viability fraction, knock-down alone: 0.73; activity call: inactive
RET → viability z-score, knock-down alone: 0.313; viability fraction, knock-down alone: 0.888; activity call: inactive
SYK → viability z-score, knock-down alone: -0.924; viability fraction, knock-down alone: 0.733; activity call: inactive
STK3 → viability z-score, knock-down alone: -0.578; viability fraction, knock-down alone: 0.776; activity call: inactive
CRKL → viability z-score, knock-down alone: 1.21; viability fraction, knock-down alone: 1; activity call: inactive
AKAP9 → viability z-score, knock-down alone: 0.101; viability fraction, knock-down alone: 0.862; activity call: inactive

Reprinted from above (5 entries):
GRK7 → viability z-score, knock-down alone: -0.128; viability fraction, knock-down alone: 0.833; activity call: inactive
BUB1 → viability z-score, knock-down alone: 0.586; viability fraction, knock-down alone: 0.922; activity call: inactive
ULK3 → viability z-score, knock-down alone: -0.518; viability fraction, knock-down alone: 0.784; activity call: inactive
JAK1 → viability z-score, knock-down alone: 0.086; viability fraction, knock-down alone: 0.86; activity call: inactive
DYRK4 → viability z-score, knock-down alone: -1.84; viability fraction, knock-down alone: 0.619; activity call: inactive
